Assay results from publication PMC3146701.
No constants are given. Whether binding was seen depends on the method and setting. In cells and extracts the contact can be indirect. Some results given as binding are weak or reduced against the parent protein; the word gives no strength.

How the values were obtained:
[1] = target: T1, Frizzled-6 (Fz-6) (mouse (endogenous in Tep1)) (UniProt Q61089); assay: co-IP; Tep1 cells treated with control or Wnt-4 supernatants; cell lysates immunoprecipitated with anti-Fz-4 or anti-Fz-6 antibodies and protein G resin in the presence of protease and phosphatase inhibitors; blots probed for PKCδ and Dvl
T1 sequence: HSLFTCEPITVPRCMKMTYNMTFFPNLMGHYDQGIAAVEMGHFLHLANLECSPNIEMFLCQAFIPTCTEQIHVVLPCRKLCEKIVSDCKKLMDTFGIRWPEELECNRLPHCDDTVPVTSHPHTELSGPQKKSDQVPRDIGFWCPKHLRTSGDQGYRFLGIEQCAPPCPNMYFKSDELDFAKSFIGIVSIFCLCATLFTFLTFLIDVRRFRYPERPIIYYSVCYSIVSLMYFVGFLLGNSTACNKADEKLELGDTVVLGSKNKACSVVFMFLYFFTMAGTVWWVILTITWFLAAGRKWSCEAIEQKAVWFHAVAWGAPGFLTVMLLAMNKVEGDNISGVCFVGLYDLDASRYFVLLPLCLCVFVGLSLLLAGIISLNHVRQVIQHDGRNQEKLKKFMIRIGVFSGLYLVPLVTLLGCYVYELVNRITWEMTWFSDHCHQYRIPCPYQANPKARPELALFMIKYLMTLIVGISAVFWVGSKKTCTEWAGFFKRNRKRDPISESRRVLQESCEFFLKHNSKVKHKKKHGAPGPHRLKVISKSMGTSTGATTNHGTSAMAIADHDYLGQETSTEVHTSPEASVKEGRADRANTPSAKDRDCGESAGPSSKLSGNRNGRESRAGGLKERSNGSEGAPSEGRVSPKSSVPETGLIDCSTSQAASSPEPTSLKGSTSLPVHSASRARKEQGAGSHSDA

[2] = target: T2, Frizzled-4 (Fz-4) (mouse (endogenous in Tep1)) (UniProt Q61088); assay: as above
T2 sequence: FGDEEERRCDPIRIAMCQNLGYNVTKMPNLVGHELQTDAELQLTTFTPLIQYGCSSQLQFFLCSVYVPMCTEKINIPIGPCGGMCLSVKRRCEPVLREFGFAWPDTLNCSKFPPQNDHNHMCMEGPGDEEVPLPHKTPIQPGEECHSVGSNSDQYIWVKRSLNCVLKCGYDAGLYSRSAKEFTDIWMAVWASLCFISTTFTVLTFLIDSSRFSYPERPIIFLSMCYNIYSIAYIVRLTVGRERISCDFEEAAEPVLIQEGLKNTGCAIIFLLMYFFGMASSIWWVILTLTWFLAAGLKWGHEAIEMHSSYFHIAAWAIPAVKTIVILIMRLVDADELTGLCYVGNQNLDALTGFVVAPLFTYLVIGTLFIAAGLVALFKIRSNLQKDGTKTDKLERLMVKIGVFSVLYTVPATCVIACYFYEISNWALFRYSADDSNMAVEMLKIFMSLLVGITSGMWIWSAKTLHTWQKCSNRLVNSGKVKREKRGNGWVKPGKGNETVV

protein kinase C delta (PKCδ) (from UniProt P28867-1 1-674) (enzyme)
binding [1]: binds | binding [2]: binds
